Reference: US11492325B2
Read-outs that look alike come from different tables or passages of the source. The structures given here were assigned with low confidence; some may be wrong.

Chains of the proteins cited; added tags and fusions are not shown.
UniProt Q12809, whole entry: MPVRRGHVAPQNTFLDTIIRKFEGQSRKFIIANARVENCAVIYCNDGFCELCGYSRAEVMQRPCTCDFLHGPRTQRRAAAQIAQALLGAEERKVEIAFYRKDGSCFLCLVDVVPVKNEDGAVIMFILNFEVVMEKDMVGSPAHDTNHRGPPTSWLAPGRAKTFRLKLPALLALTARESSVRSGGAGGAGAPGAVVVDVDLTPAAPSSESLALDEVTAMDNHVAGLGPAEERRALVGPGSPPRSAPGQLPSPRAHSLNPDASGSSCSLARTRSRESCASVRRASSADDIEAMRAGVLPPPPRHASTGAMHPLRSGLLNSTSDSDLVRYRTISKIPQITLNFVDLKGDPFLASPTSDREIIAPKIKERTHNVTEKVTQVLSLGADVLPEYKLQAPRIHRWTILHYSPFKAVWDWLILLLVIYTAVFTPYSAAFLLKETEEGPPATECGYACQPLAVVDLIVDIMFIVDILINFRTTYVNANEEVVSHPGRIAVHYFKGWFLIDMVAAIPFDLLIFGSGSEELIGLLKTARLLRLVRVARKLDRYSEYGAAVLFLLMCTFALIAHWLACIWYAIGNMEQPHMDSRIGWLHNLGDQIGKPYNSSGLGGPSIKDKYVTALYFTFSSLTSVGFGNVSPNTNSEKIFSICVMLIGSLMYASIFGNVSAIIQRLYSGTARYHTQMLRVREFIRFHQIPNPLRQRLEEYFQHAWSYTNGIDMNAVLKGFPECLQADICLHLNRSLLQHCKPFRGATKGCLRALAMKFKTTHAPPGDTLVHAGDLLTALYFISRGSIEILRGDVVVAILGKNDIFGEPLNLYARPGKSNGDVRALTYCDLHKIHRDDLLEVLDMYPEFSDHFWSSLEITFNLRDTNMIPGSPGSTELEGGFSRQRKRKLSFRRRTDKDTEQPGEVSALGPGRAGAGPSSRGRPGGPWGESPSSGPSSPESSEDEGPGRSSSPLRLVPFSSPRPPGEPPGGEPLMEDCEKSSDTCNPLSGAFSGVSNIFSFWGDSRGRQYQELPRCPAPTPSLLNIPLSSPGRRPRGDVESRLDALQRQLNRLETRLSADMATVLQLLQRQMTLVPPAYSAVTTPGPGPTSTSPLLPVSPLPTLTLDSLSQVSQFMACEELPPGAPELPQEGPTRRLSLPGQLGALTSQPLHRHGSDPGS

How the values were obtained:
[1] = biological target: hERG potassium channel (IKr) (Homo sapiens, UniProt Q12809); details: ratio, Example 2; tested form: HCl
[2] = biological target: Na+ channel currents in LQT3 patient-derived cardiomyocytes (Homo sapiens, UniProt Q14524); details: tested form: HCl

NC(COc1ccccc1C(F)(F)F)c1ccccc1 (stereo not drawn)
DKr/NaL [1]: 36.1
DNaP/Kr [1]: 1.1
ratio (INaP/INaL) ([2]; LQT3 patient-derived cardiomyocytes): > 56
ratio (INaP/INaL) ([2]; Peak/Late ratio): 111
Ratio Mex INaL/Lead INaL ([2]; potency relative to Mexiletine): 28.3
Ratio of Mex Ratio/Lead Ratio ([2]; selectivity relative to Mexiletine): 41
